Laboratory results taken from PubChem BioAssay AID588590 (National Center for Advancing Translational Sciences (NCATS), 2011).
In all, about 390,000 compounds went through this assay and about 4,000 (1%) were called active. The shares of active, inactive and inconclusive entries below differ from those in the screen. Calls come from the whole dose curve; as a rule, active = well fitted inhibition curve with a large enough effect; inconclusive = small, poorly fitted or top-dose-only effect, or another doubt; inactive = no such curve, though single readings can be large or run the other way. Potencies beside an inconclusive call are fits to weak or partial responses and may not hold up. Residues, ends and D or L forms follow the SMILES beside them.

Chains of the proteins cited; added tags and fusions are not shown. Lines headed by an entry give the natural chain unless they say otherwise; changes in a name come on top.
UniProt Q9UNA4: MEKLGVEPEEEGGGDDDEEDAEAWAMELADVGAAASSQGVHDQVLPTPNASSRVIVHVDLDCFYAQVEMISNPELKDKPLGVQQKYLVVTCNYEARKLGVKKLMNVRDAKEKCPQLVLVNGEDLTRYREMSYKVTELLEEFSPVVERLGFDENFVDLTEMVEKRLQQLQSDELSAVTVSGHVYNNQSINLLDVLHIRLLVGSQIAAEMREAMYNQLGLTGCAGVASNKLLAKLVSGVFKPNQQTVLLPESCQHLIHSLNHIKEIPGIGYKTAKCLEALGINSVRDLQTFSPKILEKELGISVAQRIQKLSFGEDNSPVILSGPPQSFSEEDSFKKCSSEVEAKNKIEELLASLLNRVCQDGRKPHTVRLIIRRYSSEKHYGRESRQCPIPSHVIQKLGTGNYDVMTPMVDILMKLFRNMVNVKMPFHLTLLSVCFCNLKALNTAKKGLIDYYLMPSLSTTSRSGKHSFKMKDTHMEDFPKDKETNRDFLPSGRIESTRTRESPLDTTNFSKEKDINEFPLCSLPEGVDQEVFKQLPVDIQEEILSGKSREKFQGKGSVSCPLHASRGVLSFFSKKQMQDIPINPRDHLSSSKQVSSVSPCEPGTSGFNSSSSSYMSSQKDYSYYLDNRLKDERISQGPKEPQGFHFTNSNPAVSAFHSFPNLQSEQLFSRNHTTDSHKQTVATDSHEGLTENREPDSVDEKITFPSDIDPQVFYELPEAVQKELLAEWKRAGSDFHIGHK

These compounds were tested against DNA polymerase iota (Homo sapiens) (UniProt Q9UNA4) (assay: qHTS for Inhibitors of Polymerase Iota). Details: Pol iota fluorescent replication assay, 10 min; series mostly up to 115 µM; activity, negative = inhibition: at the top concentration.
Summary of the method: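 Fluorescent replication assay read twice, at 0 min and 10 min after adding 50 nM (final) substrate. Enzyme (10 nM) and compounds were first incubated 15 min at room temperature; enzyme-free buffer wells were negative controls.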
Potency is the fitted concentration of half-maximal effect.

activity, negative = inhibition, inactive:
CCCCN1CC(O)=C(c2nc(-c3ccc(Br)cc3)cs2)C1=N 14.2%
CCOC(=O)c1cnc(SCC(=O)OC)nc1N -7.52%
Cc1ccccc1Nc1nc(-c2sc(NC(=O)c3ccco3)nc2C)cs1 6.46%
CCOc1ccc(C(=O)N2CCN(Cc3cc(=O)n4nc(-c5ccccc5Cl)sc4n3)CC2)cc1 16.4%
O=C(COc1ccc(/C=N/NS(=O)(=O)c2ccccc2)cc1)Nc1ccccc1 3.71%
COc1ccc(NC(=O)CSC2=Nc3ccccc3C3=NC(CC(=O)NCc4ccc(F)cc4)C(=O)N23)cc1 (centres undefined) -8.61%
CCc1ccc(-c2nn(CC(=O)NC3CCCCC3)c3c2cnc2ccc(OC)cc23)cc1 20.6%
COc1ccc(CCNC(=O)c2ccc([N+](=O)[O-])cc2)cc1 8.71%
O=C(N/N=C/c1ccco1)c1cc(Br)ccc1OCc1ccccc1 8.96%
COc1ccc2c(C)c(CCC(=O)NCCc3ccc(Cl)cc3)c(=O)oc2c1 -27%
Cc1cc(C(F)F)n2nc(C(=O)Nc3ccc(F)c(Cl)c3)nc2n1 -12.2%
CCOC(=O)C1=C(O)/C(=C/c2ccc(CNC(=O)C(=O)Nc3ccc(C)cc3)o2)N=C1C -13.6%

Arranged by molar mass (ascending): 3 of the compounds above
activity, negative = inhibition, inactive:
Cc1ccccc1Nc1nc(-c2sc(NC(=O)c3ccco3)nc2C)cs1 6.46%
CCc1ccc(-c2nn(CC(=O)NC3CCCCC3)c3c2cnc2ccc(OC)cc23)cc1 20.6%
COc1ccc(NC(=O)CSC2=Nc3ccccc3C3=NC(CC(=O)NCc4ccc(F)cc4)C(=O)N23)cc1 (centres undefined) -8.61%

Following part:

Potency, inconclusive:
CC1(c2ccccc2)CC(C)(C)N2C(=O)C3(C(C#N)=C(N)Oc4cc(O)ccc43)c3cccc1c32 (centres undefined) 31.6 µM [inhibitor, partial curve, poor fit]
Cc1cccc(N2C(=O)CCSC23C(=O)N(Cc2ccc(F)cc2)c2ccccc23)c1 (centres undefined) 22.4 µM [inhibitor, full curve, poor fit]
O=C(O)c1cccc([N+](=O)[O-])c1C(=O)Nc1nc2ccccc2s1 3.98 µM [inhibitor, full curve]
O=c1c2cc(-c3ccccc3)sc2ncn1/N=C/c1ccco1 2 µM [inhibitor, full curve]
Cc1ccn2c(=O)nc(SCC(=O)N3CCC(Cc4ccccc4)CC3)nc2c1 14.1 µM [inhibitor, full curve, poor fit]
COc1ccc(C2=NCCn3nc4cc(C(F)(F)F)ccc4c32)cc1 28.2 µM [inhibitor, single point]
CC1C2Cn3c(nc4ccccc43)C1N(C(C)C)O2 (centres undefined) 7.08 µM [inhibitor, full curve, poor fit]
Cc1ccc(Nc2nnc(SC/C(O)=C(\C#N)c3nc4ccccc4[nH]3)s2)c(C)c1 56.2 µM [inhibitor, partial curve, poor fit]
CCC1CCCCN1C(=O)CNCC1CCCO1 (centres undefined) 44.7 µM [inhibitor, partial curve, poor fit]
O=C1NNC(=O)C2C3C=CC(C4CC34)C12 (centres undefined) 112 µM [inhibitor, single point]
CC1CCN(Cc2c(C(=O)O)nnn2-c2nonc2N)CC1 14.1 µM [inhibitor, full curve]
O=C1c2cc(O)c(O)cc2S(=O)(=O)C1c1ccccc1 (centres undefined) 44.7 µM [inhibitor, partial curve, poor fit]
O=C(O)C1OC(C(=O)O)C2C1C(F)(F)C2(F)F (centres undefined) 17.8 µM [inhibitor, full curve]
CCOC(=O)/C(C)=C1\NC(C)(C)Cc2ccccc21 28.2 µM [inhibitor, single point]
CCOc1cc(N2CCOCC2)c(OCC)cc1NC(=O)CSc1ncccc1C(=O)O 20 µM [inhibitor, partial curve, poor fit]
COc1ccc(C(=O)Nn2c(C)nc3ccccc3c2=O)cc1OC 31.6 µM [inhibitor, partial curve, poor fit]
O=C(OCC(=O)c1ccc[nH]1)c1ccc(Cl)nc1 15.8 µM [inhibitor, full curve]
C[C@@H]1NC(=O)c2cc([N+](=O)[O-])cc(I)c2OCC[C@@H](C(=O)NC(CC(=O)O)C(N)=O)NC(=O)[C@H](CC(N)=O)NC1=O (some centres undefined) (HELM PEPTIDE1{A.N.[O=C([C@H](CCOc1c(I)cc([N+](=O)[O-])cc1C(=O)[*:3])N[*:1])[*:2]].[O=C(O)CC(N[*:1])C(=O)[*:2]].[am]}$PEPTIDE1,PEPTIDE1,1:R1-3:R3$$$V2.0) 25.1 µM [inhibitor, single point]
Cc1cc(OC(C(=O)O)c2ccccc2)c2c(C)c(Cc3ccccc3)c(=O)oc2c1 (centres undefined) 39.8 µM [inhibitor, single point]
S=C(NCCCc1cnc[nH]1)NCCCN(Cc1ccc(Cl)cc1)c1ncc(Br)cn1 56.2 µM [inhibitor, partial curve, poor fit]
C=CCN1C(=O)CSc2ccc(C(=O)NCc3ccco3)cc21 70.8 µM [inhibitor, partial curve, poor fit]
NS(=O)(=O)c1ccc(CCNC(=O)CN2CCN(Cc3cccc4ccccc34)CC2)cc1 89.1 µM [inhibitor, single point]
CCc1ccc(NC(=O)CN(CC(=O)Nc2ccc(CC)cc2)CC(C)O)cc1 (centres undefined) 70.8 µM [inhibitor, partial curve, poor fit]
O=S(=O)(/N=C(/Nc1ccccn1)c1ccccc1)c1ccc(F)cc1 70.8 µM [inhibitor, partial curve, poor fit]
CC(=O)c1cc2c(cc1NC(=O)CN1CCN(c3ccc(F)cc3)CC1)OCO2 28.2 µM [inhibitor, partial curve, poor fit]
CCN(CC)c1ccc(NC(=O)CSc2nc(C)cc(=O)[nH]2)cc1 1.26 µM [inhibitor, full curve, poor fit]
CC1CCN(CCCn2c(=S)[nH]c3c(sc4ccc([N+](=O)[O-])cc43)c2=O)CC1 31.6 µM [inhibitor, partial curve, poor fit]
O=c1cc2c(nn1Cc1c(Cl)cccc1Cl)-c1ccccc1CC2 35.5 µM [inhibitor, partial curve, poor fit]
C#CCOCCOCCOCCNc1nc(N2CCN(C(=O)Cn3cc(CCO)nn3)CC2)nc(N2CCN(C(=O)[C@H](C(C)C)n3cc(CCO)nn3)CC2)n1 22.4 µM [inhibitor, full curve, poor fit]
CCc1ccc(NC(=O)c2ccc3c(c2)C(=O)N(Cc2ccco2)C3=O)cc1 28.2 µM [inhibitor, partial curve, poor fit]
COc1ccc(-c2cc3ccccc3n2CC(O)CN2CCC(C)CC2)cc1 (centres undefined) 112 µM [inhibitor, partial curve, poor fit]
COc1cc(-c2c(NC(=O)c3ccco3)oc3c(C)cccc3c2=O)cc(OC)c1OC 15.8 µM [inhibitor, partial curve, poor fit]
O=C(NCCCN1CCOCC1)c1ccc(N2CCCC2)c([N+](=O)[O-])c1 20 µM [inhibitor, partial curve, poor fit]
Cc1nnc(SCC(=O)N2CCN(S(=O)(=O)c3ccc(Cl)cc3)CC2)[nH]c1=O 35.5 µM [inhibitor, partial curve, poor fit]
COc1ccccc1NC(=S)N1CCN(C(c2ccccc2)c2ccccc2)CC1 3.98 µM [inhibitor, partial curve]
C#CCOCCOCCOCCNc1nc(N2CCN(C(=O)[C@H]([C@@H](C)CC)n3cc([C@@H](N)CC(C)C)nn3)CC2)nc(N2CCN(C(=O)[C@H](Cc3cc4ccccc4[nH]3)n3cc([C@@H](N)Cc4ccc(O)cc4)nn3)CC2)n1 35.5 µM [inhibitor, full curve, poor fit]
C=CCc1ccccc1OCC(O)CN1CCN(CCN2C(=O)c3cccc4cccc(c34)C2=O)CC1 (centres undefined) 31.6 µM [inhibitor, partial curve, poor fit]
O=C(Cc1ccc(Cl)cc1Cl)NC1CCCCCC1 89.1 µM [inhibitor, single point]
COc1cccc(NC(=O)/C(C#N)=C\c2cn(Cc3ccc(Cl)cc3)c3ccccc23)c1 89.1 µM [inhibitor, single point]
CC(CN1CC(=O)NC(=O)C1)N1CC(=O)NC(=O)C1 (centres undefined) 2.24 µM [inhibitor, full curve, poor fit]
CC(=O)Nc1ccc(OS(=O)(=O)c2cc(Cl)ccc2C)cc1 89.1 µM [inhibitor, single point]
COc1ccc(NC(=S)N(CCc2c(C)[nH]c3ccccc23)Cc2cccnc2)cc1 100 µM [inhibitor, single point]
O=C(O)CCc1ccccc1OC(=O)c1ccccc1 79.4 µM [inhibitor, single point]
O=C(CSc1c2c(nc3cc(Cl)ccc13)CCCC2)NCc1ccco1 50.1 µM [inhibitor, partial curve, poor fit]

Copied from above, three compounds:
Potency, inconclusive:
O=c1c2cc(-c3ccccc3)sc2ncn1/N=C/c1ccco1 2 µM [inhibitor, full curve]
Cc1ccn2c(=O)nc(SCC(=O)N3CCC(Cc4ccccc4)CC3)nc2c1 14.1 µM [inhibitor, full curve, poor fit]
COc1ccc(C2=NCCn3nc4cc(C(F)(F)F)ccc4c32)cc1 28.2 µM [inhibitor, single point]

Following part:

Potency, active:
O=C(CN1C(=O)NC2(CCOc3ccccc32)C1=O)c1ccc[nH]1 (centres undefined) 39.8 µM
COc1ccc(S(=O)(=O)N2CCN(C(=O)c3cc4c(s3)CCC4)CC2)cc1 2.82 µM
CCN(CCCNC(=O)c1cc2cc3ccc(OC)cc3nc2s1)c1ccccc1 79.4 µM
